[ ]: non-standard residue; d: D form. Aib = CC(C)(N)C(=O)O
Experiment: general procedure: Fmoc solid-phase peptide synthesis; Fmoc-L-Thr(tBu)-Wang resin (GL Biochem, loading capacity: 0.533 mmol/g); HCTU/4-methylmorpholine
Conditions: whole synthesis, analytical high-performance liquid chromatography and HPLC/mass spectrometry

H-HSQGTFTSDYSKYLDL[Aib]RAEDFVQWLEST-OH
final HPLC purity: 97.05%

H-HSQGTFTSDYSKYLES[Aib]RAQEFVQWLEST-OH
final HPLC purity: 93.59%

H-HSQGTFTSDYSKYLES[Aib]RAQDFVEWLLET-OH
final HPLC purity: 93.40%

H-HSQGTFTSDYSKYLES[Aib]RAQDFVEWLEET-OH
final HPLC purity: 97.04%

H-HSQGTFTSDYSKYLES[Aib]RAQDFVQWLLST-OH
final HPLC purity: 88.63%

H-HSQGTFTSDYSKYLDV[Aib]RAQEFVQWLEST-OH (SMILES CC(C)C[C@H](NC(=O)[C@H](Cc1c[nH]c2ccccc12)NC(=O)[C@H](CCC(N)=O)NC(=O)[C@@H](NC(=O)[C@H](Cc1ccccc1)NC(=O)[C@H](CCC(=O)O)NC(=O)[C@H](CCC(N)=O)NC(=O)[C@H](C)NC(=O)[C@H](CCCNC(=N)N)NC(=O)C(C)(C)NC(=O)[C@@H](NC(=O)[C@H](CC(=O)O)NC(=O)[C@H](CC(C)C)NC(=O)[C@H](Cc1ccc(O)cc1)NC(=O)[C@H](CCCCN)NC(=O)[C@H](CO)NC(=O)[C@H](Cc1ccc(O)cc1)NC(=O)[C@H](CC(=O)O)NC(=O)[C@H](CO)NC(=O)[C@@H](NC(=O)[C@H](Cc1ccccc1)NC(=O)[C@@H](NC(=O)CNC(=O)[C@H](CCC(N)=O)NC(=O)[C@H](CO)NC(=O)[C@@H](N)Cc1c[nH]cn1)[C@@H](C)O)[C@@H](C)O)C(C)C)C(C)C)C(=O)N[C@@H](CCC(=O)O)C(=O)N[C@@H](CO)C(=O)N[C@H](C(=O)O)[C@@H](C)O)
final HPLC purity: 86.97%

H-HSQGTFTSDYSKYLES[Aib]RAQDFVQWLLET-OH
final HPLC purity: 97.01%

H-HSQGTFTSDYSKYLES[Aib]RAEDFVRWLEST-OH (SMILES CC(C)C[C@H](NC(=O)[C@H](Cc1ccc(O)cc1)NC(=O)[C@H](CCCCN)NC(=O)[C@H](CO)NC(=O)[C@H](Cc1ccc(O)cc1)NC(=O)[C@H](CC(=O)O)NC(=O)[C@H](CO)NC(=O)[C@@H](NC(=O)[C@H](Cc1ccccc1)NC(=O)[C@@H](NC(=O)CNC(=O)[C@H](CCC(N)=O)NC(=O)[C@H](CO)NC(=O)[C@@H](N)Cc1c[nH]cn1)[C@@H](C)O)[C@@H](C)O)C(=O)N[C@@H](CCC(=O)O)C(=O)N[C@@H](CO)C(=O)NC(C)(C)C(=O)N[C@@H](CCCNC(=N)N)C(=O)N[C@@H](C)C(=O)N[C@@H](CCC(=O)O)C(=O)N[C@@H](CC(=O)O)C(=O)N[C@@H](Cc1ccccc1)C(=O)N[C@H](C(=O)N[C@@H](CCCNC(=N)N)C(=O)N[C@@H](Cc1c[nH]c2ccccc12)C(=O)N[C@@H](CC(C)C)C(=O)N[C@@H](CCC(=O)O)C(=O)N[C@@H](CO)C(=O)N[C@H](C(=O)O)[C@@H](C)O)C(C)C)
final HPLC purity: 88.72%
